We go through 56 molecules from PubChem BioAssay AID1487 (National Center for Advancing Translational Sciences (NCATS), 2009).

SMILES strings stand for the structures. Some of the results follow. Shown are side measurements of this screen, not its main read-out; they come without a call. The list favours compounds with an active or inconclusive main result. The note in brackets gives the kind of curve behind each potency; many fits are weak.

The test is described as follows: qHTS Assay for Modulators of Lamin A Splicing. The conditions noted are these: HeLa LMNA splicing GFP/RFP minigene ratio, 48 h. In outline:
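S3 HeLa cells stably expressing lamin A-EGFP splicing minigene plus DsRed2, 600 cells/well, 48 h compound exposure at 37C. Laser-scanning cytometry; analysed as GFP (500-530 nm)/RFP (575-640 nm) total intensity ratio; 0.5% DMSO vehicle.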

[1] abbreviates: measured here: GFP splicing reporter channel.
[2] abbreviates: measured here: RFP viability control channel.

`C(=N\n1cnnc1)/c1ccc(OCc2cccc3ccccc23)cc1`: the AC50 under setting [1] was 25.1 µM [rising, single point] and the AC50 under setting [2] was 31.6 µM [rising, single point].
Regarding `CC1(C)CC(=O)C(C2=NC(C)(C)Cc3ccccc32)=C(O)C1`, the concentration at half-maximal activity (AC50) under setting [2] was 5.62 µM [rising, partial curve].
On the same count and under the same terms, the figure for `COC(=O)c1ccccc1NC(=O)c1cn(-c2ccc(C)c(C)c2)c(=O)c2ccccc12` is 22.4 µM [rising, single point].
On to `O=C1C2C3c4ccccc4C(c4ccccc43)C2C(=O)N1c1ccncc1` (centres undefined), for which the AC50 reads like this: under setting [1], 11.2 µM [falling, partial curve]; under setting [2], 11.2 µM [falling, partial curve, poor fit].
Take `Cc1cccc(C2c3[nH]c4ccccc4c3CCN2C(=O)c2cc3c([nH]c2=O)CCCC3)n1` (centres undefined): the AC50 under setting [1] was 0.0141 µM [falling, full curve].
`Cc1cccc(-c2nnc(SCC#N)n2C)c1`: the AC50 under setting [2] was 0.282 µM [falling, full curve].
In the case of `COc1ccc(-c2[nH]ncc2CNCCCSC)cc1F`, under setting [1], the AC50 was 0.158 µM [rising, full curve, poor fit].
For the molecule `Cc1cc(C)c(C)c(S(=O)(=O)N2CCN(CC(=O)Nc3sccc3C#N)CC2)c1C`, under setting [2], the concentration at half-maximal activity (AC50) is 22.4 µM [rising, single point].
As to `CCc1cc2c(NCc3ccco3)ncnc2s1`, the AC50 under setting [2] was 22.4 µM [falling, partial curve, poor fit].
Same read-out and setting: the value for `Cc1cc(C(=O)N=Nc2c(O)n(C(C)C)c3ccccc23)n[nH]1` was 0.00501 µM [rising, full curve, poor fit].
As to `Cn1cnnc1SCc1ccc(-c2ccc(Br)cc2)o1`, the concentration at half-maximal activity (AC50) is, setting by setting: under setting [1], 1.78 µM [rising, full curve, poor fit]; under setting [2], 17.8 µM [rising, partial curve, poor fit].
As for `O=C(CSc1ccc(Cl)cc1)N1CCN(c2ncc(C(F)(F)F)cc2Cl)CC1`, the concentration at half-maximal activity (AC50) under setting [2] is 15.8 µM [rising, single point].
`CCOC(=O)c1c(NC(=O)c2ccc(S(=O)(=O)N3CCCC(C)C3)cc2)sc2c1CCN(C(C)C)C2` (centres undefined): the concentration at half-maximal activity (AC50) under setting [2] is 11.2 µM [falling, partial curve].
`Nc1ccccc1Sc1nc2ccccc2[nH]1`: under setting [1], the AC50 is 10 µM [falling, partial curve, poor fit].
`Cc1ccc(C)c2[nH]c(=O)c(CN(Cc3cccs3)C(=S)NCc3ccco3)cc12`: the AC50 under setting [2] is 12.6 µM [rising, partial curve, poor fit].
Same read-out and setting: the value for `CC(C)(C)C(=O)Nc1ccc(C(=O)N/N=C/c2ccccc2OC(=O)c2ccc(Cl)cc2)cc1` was 11.2 µM [rising, partial curve].
With `CCOC(=O)c1cc(-c2ccccc2)n(-c2cccc(C(=O)N(CC)c3ccccc3)c2)c1C`, the concentration at half-maximal activity (AC50) reads like this: under setting [1], 22.4 µM [rising, partial curve, poor fit]; under setting [2], 17.8 µM [rising, partial curve].
On to `COc1ccc(CNC(=O)C2CCCN2S(=O)(=O)c2ccc(C)cc2)cc1` (centres undefined), for which the half-maximal activity concentration (AC50) runs as follows: under setting [1], 12.6 µM [rising, single point]; under setting [2], 15.8 µM [rising, single point].
Take `COc1cc(CNCCN2CCOCC2)ccc1OCc1c(Cl)cccc1Cl`: the AC50 under setting [1] was 12.6 µM [rising, single point] and the concentration at half-maximal activity (AC50) under setting [2] is 20 µM [rising, single point].
Turning to `CCOc1ccc(Br)cc1CSC(=N)N`, the AC50 reads like this: under setting [1], 14.1 µM [rising, partial curve]; under setting [2], 11.2 µM [rising, partial curve].
As for `O=C(CCC(=O)NNC(=O)COc1ccc(Br)cc1Br)NCc1ccccc1`, the AC50 reads like this: under setting [1], 35.5 µM [falling, single point]; under setting [2], 35.5 µM [falling, single point].
With `c1cc2c(cn1)cnc1cscc12`, the AC50 under setting [1] was 6.31 µM [rising, partial curve, poor fit].
Consider `O=C(Nc1nnc(-c2cccnc2)o1)c1cccc(Cl)c1`, for which the concentration at half-maximal activity (AC50) under setting [2] is 17.8 µM [falling, single point].
With `COc1cc(S(=O)(=O)N2CCC(c3nc4ccccc4s3)CC2)ccc1S(=O)(=O)NC1CCCC1`, the half-maximal activity concentration (AC50) under setting [2] is 12.6 µM [rising, partial curve].
Consider `C=CCN(c1ccccc1)S(=O)(=O)c1cccc(C(=O)Nc2nnc(SCC)s2)c1`, for which the concentration at half-maximal activity (AC50) under setting [1] was 14.1 µM [rising, single point] and the concentration at half-maximal activity (AC50) under setting [2] was 20 µM [rising, single point].
Consider `COc1cc(-c2nnc(SCC(=O)c3ccccc3)o2)cc(OC)c1OC`, for which the concentration at half-maximal activity (AC50) under setting [2] is 12.6 µM [rising, partial curve].
Consider `CCOC(=O)C(C(C)=O)c1c(Br)c(O)c(O)c2c(C(=O)c3ccc(C)cc3)coc12` (centres undefined), for which the AC50 was 20 µM [falling, single point] under setting [1] and 25.1 µM [falling, single point] under setting [2].
Turning to `CC(C)c1ccccc1-n1c(SCC(=O)c2ccc3c(c2)NC(=O)CO3)nc2ccccc2c1=O`, the AC50 reads like this: under setting [1], 4.47 µM [rising, full curve, poor fit]; under setting [2], 14.1 µM [rising, partial curve].
Turning to `Cc1ccc(CN2CCN(/N=C/c3ccc(C(=O)O)cc3)CC2)cc1`, the concentration at half-maximal activity (AC50) under setting [2] is 0.1 µM [falling, partial curve, poor fit].
Consider `CC(C)(C)c1ccc(-c2csc(NC(=O)CN3C(=O)NC4(CCCCC4)C3=O)n2)cc1`, for which, under setting [2], the concentration at half-maximal activity (AC50) was 11.2 µM [rising, partial curve].
Same read-out and setting: the figure for `CCn1c(COc2ccc(C)cc2)nnc1SCC(=O)NNC(=O)c1ccc(OC)cc1` is 22.4 µM [rising, single point].
The same measure, in the same setting: the figure for `CC1=C(C(=O)Nc2ccc(C)cc2)C(c2ccc(Cl)cc2)n2nnnc2N1` (centres undefined) is 20 µM [rising, single point]; for `COc1cccc(-n2nnc3c(=O)n(CC(=O)N4CCC(Cc5ccccc5)CC4)cnc32)c1` it is 0.00447 µM [falling, full curve, poor fit].
`COc1cccc(CC(NC(C)=O)C(=O)NC2CCN(C(=O)C3CC3)CC2)c1OC` (centres undefined): the AC50 is, setting by setting: under setting [1], 0.794 µM [falling, full curve, poor fit]; under setting [2], 0.0178 µM [falling, full curve, poor fit].
As for `O=C(Nc1ccc(-c2nc3cccnc3s2)cc1)c1ccco1`, under setting [2], the AC50 was 14.1 µM [rising, single point].
On to `C/C(CCN1CCCCc2nc(C)c(C)cc21)=N\O[C@@H](C)CN1CCCCc2nc(C)c(C)cc21`, for which the AC50 runs as follows: under setting [1], 35.5 µM [rising, single point]; under setting [2], 17.8 µM [rising, single point].
As to `CCCCn1nc2cc(C(=O)N[C@H](C)C3CCCCC3)ccc2c1OCC`, the AC50 under setting [2] was 14.1 µM [rising, partial curve, poor fit].
Regarding `C=CCC(=O)N1CCCC(CNC(=O)c2ccc(-c3ccccc3)cc2)C1` (centres undefined), the AC50 under setting [2] is 10 µM [falling, partial curve, poor fit].
On to `CCOc1ccccc1/C=N/NC(=O)c1cccc(Cl)c1`, for which the concentration at half-maximal activity (AC50) under setting [2] is 6.31 µM [rising, partial curve, poor fit].
The same measure, in the same setting: the value for `c1ccc(-c2nc3cc4ccccc4cc3[nH]2)nc1` was 0.141 µM [rising, full curve, poor fit]; that for `COc1cccc(/C=N/Nc2cc(-n3nc(C)cc3-c3ccccc3)ncn2)c1O` was 11.2 µM [rising, partial curve]; that for `COc1ccc(C(=O)Nc2nnc(S(=O)(=O)N(CC(C)C)c3ccccc3)s2)cc1` was 5.62 µM [falling, partial curve, poor fit].
Take `CCN(CC)S(=O)(=O)c1ccc(C)c(NC(=O)Cn2c(=O)cnc3ccccc32)c1`: the AC50 is 35.5 µM [rising, single point] under setting [1] and 35.5 µM [rising, single point] under setting [2].
In the case of `COc1ccc(OC)c(C2C(C(=O)Nc3ccccc3OC)=C(C)Nc3c(C(=O)Nc4ccc(F)cc4)cnn32)c1` (centres undefined), under setting [2], the half-maximal activity concentration (AC50) is 0.0891 µM [rising, full curve, poor fit].
Take `C/C(=N/N1CCN(Cc2cccc3ccccc23)CC1)c1cccnc1`: the AC50 under setting [1] is 0.158 µM [rising, full curve, poor fit].
Turning to `O=C(NNC(=S)NC1CCCCC1)c1cccc(S(=O)(=O)Nc2ccccc2Cl)c1`, the concentration at half-maximal activity (AC50) under setting [2] was 25.1 µM [rising, partial curve].
Still for that read-out and setting: the value for `Cc1sc2nc(CN3CCCC3)nc(NCc3ccncc3)c2c1C` was 7.94 µM [rising, partial curve, poor fit].
With `Cc1n[nH]c(C)c1S(=O)(=O)N1CCCC(C(=O)NCc2ccccc2Cl)C1` (centres undefined), the concentration at half-maximal activity (AC50) under setting [1] was 11.2 µM [rising, single point] and the half-maximal activity concentration (AC50) under setting [2] was 14.1 µM [rising, single point].
In the case of `CCCc1cc(C(=O)Nc2cc(Br)ccc2O)no1`, the AC50 under setting [2] was 35.5 µM [rising, single point].
The same measure, in the same setting: the figure for `Cc1ccc2nc(NC(=O)CCn3c(=O)sc4ccccc43)sc2c1` is 12.6 µM [rising, single point].
For `O=C(Nc1cccc(F)c1)c1ccc(-c2ccccc2C(F)(F)F)o1`, the AC50 is 14.1 µM [rising, single point] under setting [1] and 14.1 µM [rising, partial curve] under setting [2].
With `COc1ccc(NS(=O)(=O)c2ccc3oc(Nc4ccc5c(c4)OCCO5)nc3c2)cc1`, the half-maximal activity concentration (AC50) under setting [2] was 7.08 µM [rising, partial curve].
Regarding `Cc1ccccc1NC(=O)C(NC1CCCCC1)C(C)C` (centres undefined), the concentration at half-maximal activity (AC50) under setting [1] was 0.0891 µM [falling, full curve, poor fit] and the AC50 under setting [2] was 0.0891 µM [falling, full curve].
In the case of `Fc1cccc(Cl)c1CSc1ccc2nnc(-c3ccccn3)n2n1`, the concentration at half-maximal activity (AC50) under setting [2] was 2.82 µM [rising, single point].
Take `Cc1ccc(-n2nnc3c(=O)n(Cc4cccc(C)c4)cnc32)cc1`: the half-maximal activity concentration (AC50) under setting [2] is 2.24 µM [rising, partial curve, poor fit].
As for `O=C(CSC1=NCCN1)NC12CC3CC(CC(C3)C1)C2`, the AC50 is, setting by setting: under setting [1], 14.1 µM [rising, single point]; under setting [2], 15.8 µM [rising, partial curve].

One may read the AC50 as the concentration at which the activity in the assay is half-maximal.
